Measurements reported in PubChem BioAssay AID1224828 (NIAID, 2016)

Test: 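Regulators linking TLR4 signalling to p65 nuclear translocation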 (primary screen)
Cell system: mouse RAW264.7 G9 macrophage reporter cells (GFP-p65, Tnf promoter-mCherry)
Reagents: siRNA pool against mouse genes, 100 nM
Timing: 2 days siRNA transfection, then 40 min LPS before fixation
Challenge: LPS (Salmonella minnesota R595) at 10 ng/ml
Read-out: 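Imaged p65 nuclear translocation ratio, normalised to the plate median, converted to robust z-scores and averaged across two replicates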
Direction: p65 translocation robust z-score: higher = more nuclear NF-kappaB p65 after LPS than the plate median; nuclear/cytoplasmic p65 ratio: higher = more nuclear NF-kappaB p65
Hit rule: 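Active if robust z is above 3.3 (negative regulators) or below -1.56, the Tlr4 control median (positive regulators); activity score 50 or more; control wells not called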
Meaning of the calls: active = hit (p65 shift raised or lowered); inactive = no clear change
In all, the deposit lists about 17,000 reagents; below is a part drawn at random. 762 of them (4.5%) were called active. 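Active calls include both raised and lowered p65 entry, mostly lowered; wells with fewer than 50 cells lack a z-score.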 The raw values are shown without normalisation.

gene knocked down | p65 translocation robust z-score | nuclear/cytoplasmic p65 ratio, rep 1 | nuclear/cytoplasmic p65 ratio, rep 2 | low cell count flag | call
Itga2b | -0.73 | 1.29 | 1.36 | enough cells to score | inactive
Panx1 | -1.41 | 1.26 | 1.23 | enough cells to score | inactive
Egfl7 | -2.02 | 1.17 | 1.13 | enough cells to score | active
Prss43 | 1.77 | 1.59 | 1.3 | enough cells to score | inactive
Rspo3 | 0.23 | 1.42 | 1.19 | enough cells to score | inactive
Sned1 | 0.99 | 1.55 | 1.14 | enough cells to score | inactive
Med12l | 3.18 | 1.77 | 2.04 | enough cells to score | inactive
Mtnap1 | -1.33 | 1.36 | 1.59 | enough cells to score | inactive
Scel | 0.02 | 1.62 | 1.42 | enough cells to score | inactive
Oas3 | 0.78 | 1.49 | 1.58 | enough cells to score | inactive
Pglyrp1 | 1.03 | 1.67 | 1.51 | enough cells to score | inactive
Kdsr | -0.46 | 1.39 | 1.3 | enough cells to score | inactive
Myo5b | -1.28 | 1.58 | 1.4 | enough cells to score | inactive
Fgf17 | 0.64 | 1.48 | 1.49 | enough cells to score | inactive
Pigc | 0.04 | 1.34 | 1.25 | enough cells to score | inactive
Zfp688 | – | 1.5 | 1.78 | fewer than 50 cells per well; well left out of scoring | inactive
Pus10 | 0.12 | 1.33 | 1.52 | enough cells to score | inactive
Kcnj5 | – | 1.46 | 1.35 | fewer than 50 cells per well; well left out of scoring | inactive
B4galnt2 | 1.11 | 1.74 | 1.45 | enough cells to score | inactive
Rnf128 | – | 1.1 | 1.2 | fewer than 50 cells per well; well left out of scoring | inactive
Nat8 | 0.46 | 1.59 | 1.38 | enough cells to score | inactive
Ppp1r11 | -0.97 | 1.34 | 1.3 | enough cells to score | inactive
Fez2 | 0.73 | 1.71 | 1.55 | enough cells to score | inactive
Qtrt1 | -0.79 | 1.28 | 1.13 | enough cells to score | inactive
Or51l14 | – | 1.72 | 1.31 | fewer than 50 cells per well; well left out of scoring | inactive

Continued, starting with the last 8 of the part before.
gene knocked down | p65 translocation robust z-score | nuclear/cytoplasmic p65 ratio, rep 1 | nuclear/cytoplasmic p65 ratio, rep 2 | low cell count flag | call
Kcnj5 | – | 1.46 | 1.35 | fewer than 50 cells per well; well left out of scoring | inactive
B4galnt2 | 1.11 | 1.74 | 1.45 | enough cells to score | inactive
Rnf128 | – | 1.1 | 1.2 | fewer than 50 cells per well; well left out of scoring | inactive
Nat8 | 0.46 | 1.59 | 1.38 | enough cells to score | inactive
Ppp1r11 | -0.97 | 1.34 | 1.3 | enough cells to score | inactive
Fez2 | 0.73 | 1.71 | 1.55 | enough cells to score | inactive
Qtrt1 | -0.79 | 1.28 | 1.13 | enough cells to score | inactive
Or51l14 | – | 1.72 | 1.31 | fewer than 50 cells per well; well left out of scoring | inactive
Msmb | 0.3 | 1.76 | 1.7 | enough cells to score | inactive
Dppa4 | -0.55 | 1.39 | 1.19 | enough cells to score | inactive
Cyth2 | -1.44 | 1.32 | 1.2 | enough cells to score | inactive
Or52z13 | -2.22 | 1.12 | 1.01 | enough cells to score | active
D130060J02Rik | 1.08 | 1.8 | 1.89 | enough cells to score | inactive
Spef2 | – | 1.31 | 1.17 | fewer than 50 cells per well; well left out of scoring | inactive
Nkap | – | 1.54 | 1.58 | fewer than 50 cells per well; well left out of scoring | inactive
Sprr2d | 0.26 | 1.41 | 1.3 | enough cells to score | inactive
Uxs1 | -0.75 | 1.27 | 1.16 | enough cells to score | inactive
Tprkb | 0.78 | 1.54 | 1.4 | enough cells to score | inactive
Bphl | 0.39 | 1.73 | 1.62 | enough cells to score | inactive
Zfp184 | – | 1.53 | 1.29 | fewer than 50 cells per well; well left out of scoring | inactive
Mrps17 | -1.18 | 1.8 | 1.24 | enough cells to score | inactive
Sult5a1 | – | 1.22 | 1.23 | fewer than 50 cells per well; well left out of scoring | inactive
Mycbpap | -0.44 | 1.72 | 1.52 | enough cells to score | inactive
Or6c1 | – | 1.36 | 0 | fewer than 50 cells per well; well left out of scoring | inactive
Pla2g2c | 0.9 | 1.52 | 1.32 | enough cells to score | inactive
Lin7c | 0.14 | 1.75 | 1.55 | enough cells to score | inactive
Adam17 | 0.22 | 1.65 | 1.65 | enough cells to score | inactive
Mettl9 | 0.23 | 1.47 | 1.58 | enough cells to score | inactive
Asb9 | 0.03 | 1.51 | 1.61 | enough cells to score | inactive
Bex2 | -1.07 | 1.26 | 1.41 | enough cells to score | inactive
Appl2 | 2.07 | 1.73 | 1.64 | enough cells to score | inactive
Lsm12 | -1.02 | 1.19 | 1.41 | enough cells to score | inactive
Or5w8 | -1.2 | 1.54 | 1.34 | enough cells to score | inactive
Triml1 | -0.27 | 1.41 | 1.47 | enough cells to score | inactive
Taar1 | – | 1.57 | 1.81 | fewer than 50 cells per well; well left out of scoring | inactive
Hhex | 2.72 | 1.83 | 1.69 | enough cells to score | inactive
Abcb8 | – | 1.35 | 1.19 | fewer than 50 cells per well; well left out of scoring | inactive
Foxo1 | -0.42 | 1.31 | 1.39 | enough cells to score | inactive
Ctdnep1 | – | 1.61 | 1.55 | fewer than 50 cells per well; well left out of scoring | inactive
Cend1 | -0.83 | 1.39 | 1.37 | enough cells to score | inactive
Sf1 | – | 1.41 | 1.23 | fewer than 50 cells per well; well left out of scoring | inactive
Snrpe | – | 1.28 | 1.08 | fewer than 50 cells per well; well left out of scoring | inactive
